# Reference: paper doi:10.1101/2021.10.05.463252
# Chains of the proteins cited; added tags and fusions are not shown.
# UniProt Q9BQQ3: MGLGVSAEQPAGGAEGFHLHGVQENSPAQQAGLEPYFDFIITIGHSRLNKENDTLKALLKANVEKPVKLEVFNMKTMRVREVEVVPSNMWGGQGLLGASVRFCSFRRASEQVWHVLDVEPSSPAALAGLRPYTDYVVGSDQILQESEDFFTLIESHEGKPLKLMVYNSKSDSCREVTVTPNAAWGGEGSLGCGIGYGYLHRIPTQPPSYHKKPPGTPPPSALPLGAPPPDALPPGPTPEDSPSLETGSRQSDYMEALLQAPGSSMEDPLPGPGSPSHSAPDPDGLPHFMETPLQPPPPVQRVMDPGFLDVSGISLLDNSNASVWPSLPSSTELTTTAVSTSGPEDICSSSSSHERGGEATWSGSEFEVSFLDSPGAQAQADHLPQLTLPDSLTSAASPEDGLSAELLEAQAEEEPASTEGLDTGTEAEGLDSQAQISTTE
# No constants are given. Whether binding was seen depends on the method and setting. In cells and extracts the contact can be indirect. Some entries that bind do so weakly or less than the wild type.
# B1: GM130 (protein, UniProt Q08379 1-1002)
# chain: MWPQPRLPPRPAMSEETRQSKLAAAKKKLREYQQRNSPGVPTGAKKKKKIKNGSNPETTTSGGCHSPEDTPKDNAATLQPSDDTVLPGGVPSPGASLTSMAASQNHDADNVPNLMDETKTFSSTESLRQLSQQLNGLVCESATCVNGEGPASSANLKDLESRYQQLAVALDSSYVTNKQLNITIEKLKQQNQEITDQLEEEKKECHQKQGALREQLQVHIQTIGILVSEKAELQTALAHTQHAARQKEGESEDLASRLQYSRRRVGELERALSAVSTQQKKADRYNKELTKERDALRLELYKNTQSNEDLKQEKSELEEKLRVLVTEKAGMQLNLEELQKKLEMTELLLQQFSSRCEAPDANQQLQQAMEERAQLEAHLGQVMESVRQLQMERDKYAENLKGESAMWRQRMQQMSEQVHTLREEKECSMSRVQELETSLAELRNQMAEPPPPEPPAGPSEVEQQLQAEAEHLRKELEGLAGQLQAQVQDNEGLSRLNREQEERLLELERAAELWGEQAEARRQILETMQNDRTTISRALSQNRELKEQLAELQSGFVKLTNENMEITSALQSEQHVKRELGKKLGELQEKLSELKETVELKSQEAQSLQQQRDQYLGHLQQYVAAYQQLTSEKEVLHNQLLLQTQLVDQLQQQEAQGKAVAEMARQELQETQERLEAATQQNQQLRAQLSLMAHPGEGDGLDREEEEDEEEEEEEAVAVPQPMPSIPEDLESREAMVAFFNSAVASAEEEQARLRGQLKEQRVRCRRLAHLLASAQKEPEAAAPAPGTGGDSVCGETHRALQGAMEKLQSRFMELMQEKADLKERVEELEHRCIQLSGETDTIGEYIALYQSQRAVLKERHREKEEYISRLAQDKEEMKVKLLELQELVLRLVGDRNEWHGRFLAAAQNPADEPTSGAPAPQELGAANQQGDLCEVSLAGSVEPAQGEAREGSPRDNPTAQQIMQLLREMQNPRERPGLGSNPCIPFFYRADENDEVKITVI
# B2: p23/TMED10 (protein, UniProt P49755 32-219)
# chain: ISFHLPINSRKCLREEIHKDLLVTGAYEISDQSGGAGGLRSHLKITDSAGHILYSKEDATKGKFAFTTEDYDMFEVCFESKGTGRIPDQLVILDMKHGVEAKNYEEIAKVEKLKPLEVELRRLEDLSESIVNDFAYMKKREEEMRDTNESTNTRVLYFSIFSMFCLIGLATWQVFYLRRFFKAKKLIE
# Biological target: GRASP65 (UniProt Q9BQQ3)
# Assay: co-IP
row,Binder,binding
1,B1,binds
2,B2,no binding
